Assay results reported in PubChem BioAssay AID624297 (National Center for Advancing Translational Sciences (NCATS), 2012).
Screen size: about 340,000 compounds; about 6,200 (1.8%) were called active. This list was built around the results that the source calls inconclusive (neither active nor inactive); the mix of calls is not that of the screen. Calls follow the shape of the dose curve; as a rule, active = well fitted activation curve with a large enough effect; inconclusive = small, poorly fitted or top-dose-only effect; inactive = no such curve, though single readings can be large or run the other way. Where the call is inconclusive, the potency comes from a doubtful curve fit.

Experiment: A quantitative high throughput screen for small molecules that induce DNA re-replication in SW480 colon adenocarcinoma cells. Also: nearly all actives have a fitted effect of over 55% in size. As to re-replication activation: % of control where 0% means no effect.
Settings: Hoechst DNA content imaging, 48 h; re-replication activation: at 46.1 µM (top of the series) unless noted
Method in brief: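 First, 250 cells per well were seeded. Next, compound or vehicle (23 nL) was pinned in, plates sat 48 hr at 37 C. Finally Hoechst was added for 40 min before fluorescence scanning.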
Potency is read from the fitted curve at half-maximal effect.

SMILES | Potency | re-replication activation
CCN(CC)Cc1cc(Nc2c3ccccc3nc3c4ccccc4n(C)c23)cc(CN(CC)CC)c1O | inconclusive: 20.6 µM [activator, single point] | 
COc1ccc2c(c1)[C@H]1[C@H](CO2)[C@H](c2ccccc2)[C@]2(C)C(=O)Nc3cc(OC)c(OC)cc3C(=O)N12 | inconclusive: 20.6 µM [activator, single point] | 
COc1ccc(Oc2cccc(Cl)c2CNC(=O)c2ccccc2C(=O)O)cc1 | inactive | 
CC1CCN(C(=O)CCNS(=O)(=O)c2ccc3c(c2)c(=O)n(C)c(=O)n3C)CC1 | inconclusive: 29.1 µM [activator, single point] | 
Cc1ccc(C)c(S(=O)(=O)N2CCN(C(=O)CCC(=O)c3cc(C)sc3C)CC2)c1 | inactive | 
Cc1ccccc1NC(=O)c1cccc2nc3ccccc3nc12 | active: 18.4 µM | 
COc1ccc(C(=O)Oc2cccc3cccnc23)cc1[N+](=O)[O-] | inconclusive: 29.1 µM [activator, single point] | 
O=C(NC(=S)N1CCN(c2ccc(F)cc2)CC1)c1cccs1 | inconclusive: 23.1 µM [activator, single point] | 
Cc1ccc(S(=O)(=O)N(CC(=O)Nc2cccc(N(C)S(C)(=O)=O)c2)c2ccc(Cl)c(Cl)c2)cc1 | inactive | 
Cc1cc([N+](=O)[O-])ccc1NC(=O)CN1CCN(Cc2ccccc2)CC1 | inconclusive: 29.1 µM [activator, single point] | 
C[C@H]1CC[C@]2(O[C@@H](CCO)C[C@H](O)[C@H]2O)O1 |  | inactive: -16.2% [at 9.22 µM]
C=CCNc1oc(C2CCCC2)nc1C#N | inactive | 
CN(Cc1c(F)cccc1Cl)C(=O)c1ccc(NS(=O)(=O)c2ccc3[nH]c(=O)[nH]c3c2)cc1 | inactive | 
O=C(CSC(=S)N1CCCCC1)c1c(F)cccc1F | inconclusive: 6.51 µM [activator, full curve, poor fit] | 
CC(C)c1ccc(S(=O)(=O)NC2CCS(=O)(=O)C2)cc1 (centres undefined) | inactive | 
Cc1ccc(C(=O)N2CCN(CCNC(=O)C(=O)NC(C)C)CC2)cc1 | inconclusive: 18.4 µM [activator, partial curve, poor fit] | 
COc1ccc(Cl)cc1NC(=O)Nc1ccc(Br)cn1 | inconclusive: 25.9 µM [activator, partial curve, poor fit] | 
COc1ccc(CN(C)C(=O)c2cccc(NC(=O)CC3SC(N4CCCCC4)=NC3=O)c2)c(OC)c1 (centres undefined) | active: 6.51 µM | 
CCCCNC(=O)Cn1cnc([N+](=O)[O-])n1 | active: 7.31 µM | 
CCOc1ccccc1NC(=O)C(NC(=O)C1CCC(C)CC1)C(C)C (centres undefined) | inconclusive: 3.26 µM [activator, partial curve, poor fit] | 
COc1cc(/C=N/NC(=O)c2ccncc2)ccc1OC(=O)c1cccc(F)c1 | inactive | 
Cn1nc([N+](=O)[O-])nc1S(C)(=O)=O | active: 9.2 µM | 
Cc1nonc1NC(=O)CSc1nc(C2CCCCC2)nc2ccccc12 | active: 8.2 µM | 

SMILES | Potency | re-replication activation
CC(C)N(Cc1cnn(C)c1)C(=O)c1ccc(OC2CCN(Cc3ccccn3)CC2)cc1 | inconclusive: 29.1 µM [activator, single point] | 
O=S(=O)(N/N=C\c1ccc(-c2ccccc2Cl)o1)c1ccccc1 | inconclusive: 25.1 µM [activator, single point] | 
C=CCn1cc(/C=N/NC(=O)COc2cccc3cccnc23)c2ccccc21 | inconclusive: 0.58 µM [activator, full curve] | 
CCCC1=C(C(=O)OCC)C(c2cc(Cl)cc(OC)c2OCc2ccccc2)NC(=O)N1 (centres undefined) | inconclusive: 32.6 µM [activator, partial curve, poor fit] | 
COCCCn1c(=N)c(C(=O)NCc2ccc3c(c2)OCO3)cc2c(=O)n3cccc(C)c3nc21 | inconclusive: 6.51 µM [activator, partial curve, poor fit] | 
CCOC(=O)c1c(NC(=O)COC(=O)/C=C/c2ccco2)sc2c1CC(C)(C)NC2(C)C | inconclusive: 29.1 µM [activator, single point] | 
O=[N+]([O-])c1ccc(N/N=C/c2ccc(OCc3cccc4ccccc34)cc2)nc1 | active: 20.6 µM | 
Cc1ccc(C(=O)N/N=C(\CC(C)C)c2ccccc2)cc1 | active: 23.1 µM | 
Cc1ccccc1NC(C)C(=O)N/N=C/c1ccccc1OCc1cccc(Br)c1 (centres undefined) | inconclusive: 29.1 µM [activator, single point] | 
CC(=O)Nc1ccc(S(=O)(=O)NCC2CCC(C(=O)N3CCCCC3)CC2)cc1 (centres undefined) | inconclusive: 6.51 µM [activator, single point] | 
CC(C)c1cc(NC(=O)CCl)on1 | inconclusive: 20.6 µM [activator, single point] | 
CCCCN(CCCC)Cc1cc2ccccc2c2c1COC2 | inactive | 
N=C1C=CC(=C(c2ccc(N)cc2)c2ccc(N)cc2)C=C1 | inconclusive: 6.51 µM [activator, full curve, poor fit] | 
COc1ccc(C(=O)N2CCN(c3cccc(Cl)c3)CC2)c(OC)c1 | inconclusive: 18.4 µM [activator, single point] | 
COc1cc(C(=O)Nc2ccc3c(c2)CCN3C(C)=O)cc(OC)c1OC | inconclusive: 13 µM [activator, partial curve, poor fit] | 
COc1ccc(-c2cc(-c3n[nH]c(=S)n3-c3cccc4ccccc34)[nH]n2)cc1 | inconclusive: 14.6 µM [activator, partial curve, poor fit] | 
COc1ccc(-c2csc3ncnc(NCCO)c23)cc1 | inconclusive: 0.0046 µM [activator, full curve, poor fit] | 
Cc1ccc(/C=C2\SC(=S)N(CCC(=O)N3CCOCC3)C2=O)cc1 | inconclusive: 29.1 µM [activator, single point] | 
COc1ccccc1NC(=S)N/N=C/c1cccc(C)c1 | inconclusive: 29.1 µM [activator, single point] | 
Cc1ccc(S(=O)(=O)N(CC(=O)N/N=C/c2cccc(C)c2)c2cccc3cccnc23)cc1 | inactive | 
CCOc1ccc2nc(NCCNC(=O)CC)c(C#N)cc2c1 | inconclusive: 18.4 µM [activator, single point] | 
Cc1nc(N/N=C/c2ccc(O)cc2O)cc(N2CCOCC2)n1 | inconclusive: 29.1 µM [activator, single point] | 
N#Cc1c(-c2ccccc2)nc(N2CCN(Cc3ccccc3)CC2)[nH]c1=O | inconclusive: 25.9 µM [activator, single point] | 

SMILES | Potency | re-replication activation
CCOc1ccc(S(=O)(=O)N2CCC(C(=O)NCc3cccnc3)CC2)cc1C | inactive | 
O=C(CNC(=O)c1cccnc1)N/N=C/c1cccnc1 | inactive | 
CCN(C(C)=O)c1cnc(C=NNC(N)=S)c2ccccc12 | active: 10.3 µM | 
O=C(C1CCCO1)N1CCN(S(=O)(=O)c2ccc(Cl)cc2)CC1 (centres undefined) | inactive | 
CCOC(CNC(=O)c1cccn2c(=O)c3cc(Cl)ccc3nc12)OCC | inactive | 
O=[N+]([O-])c1ccc(COn2nnc3ccccc32)cc1 |  | inactive: 5.36% [at 1.84 µM]
COc1cc2c(cc1OC)CN(c1ccc(C(F)(F)F)cn1)CC2 | inconclusive: 29.1 µM [activator, single point] | 
CCOc1ccc2nc3c(cc2c1)CN(CCOC)C(=NCCOC)S3 | inconclusive: 16.4 µM [activator, partial curve, poor fit] | 
COc1cc(C2C3=C(COC3=O)Oc3cc4c(cc32)OCO4)cc(OC)c1O (centres undefined) | inconclusive: 1.84 µM [activator, partial curve, poor fit] | 
Cn1nnnc1SCC(=O)Nc1cc(S(=O)(=O)N2CCCCC2)ccc1Cl | inactive | 
CCOC(=O)NC1(NCc2ccccc2)Oc2ccccc2O1 | inconclusive: 32.6 µM [activator, partial curve, poor fit] | 
Cc1ccsc1C(=O)N(c1nc2ccccc2s1)c1c(C)cccc1C | inconclusive: 20.6 µM [activator, partial curve, poor fit] | 
Cc1ccn2c(c1)nc(=O)c1cc(S(=O)(=O)N3CCCCC3)ccc12 | inactive | 
CCCCn1c(N)c(N(CCC(C)C)C(=O)COC(=O)c2sccc2C)c(=O)[nH]c1=O | inactive | 
COc1cc2c(C(=O)N3CCN(c4cccc(Cl)c4)CC3)cn(C)c(=O)c2cc1OC | inconclusive: 29.1 µM [activator, single point] | 
COc1cc(CN2CC(=O)N(c3cc(Cl)ccc3C)C2=S)cc(OC)c1OC | inactive | 
CCOC(=O)c1cc2c(nc1C)-c1cc(Cl)cc(Cl)c1OC2O (centres undefined) | inconclusive: 0.517 µM [activator, full curve, poor fit] | 
O=c1c(Cl)c(NCCCO)cnn1-c1nc2ccccc2[nH]1 | inconclusive: 7.31 µM [activator, partial curve, poor fit] | 
COc1ccc2nc(SCC(=O)NC(C)(C)C)[nH]c2c1 | inconclusive: 29.1 µM [activator, single point] | 
Cc1nccn1CC(O)Cn1c2ccccc2c2ccccc21 (centres undefined) | inactive | 
COc1ccc(/C=C2\SC(=S)N(CC(=O)NC3C=CS(=O)(=O)C3)C2=O)cc1 (centres undefined) | inconclusive: 2.59 µM [activator, full curve, poor fit] | 
Cc1ccn2c(/C=N/OCc3cccc(F)c3)c(-c3ccc(Cl)cc3)nc2c1 | inconclusive: 20.6 µM [activator, single point] | 
CCc1ccc(CCC(=O)Nc2ccc(C)cc2C)o1 | inconclusive: 29.1 µM [activator, single point] | 

Record cards, as listed above:
`CCOC(=O)NC1(NCc2ccccc2)Oc2ccccc2O1` in the list: Potency: inconclusive: 32.6 µM [activator, partial curve, poor fit]
`O=C(CNC(=O)c1cccnc1)N/N=C/c1cccnc1` in the list: Potency: inactive
`CCOc1ccc(S(=O)(=O)N2CCC(C(=O)NCc3cccnc3)CC2)cc1C` in the list: Potency: inactive
